Our source for the binding values is publication doi:10.1101/2020.05.09.084020.

B1: IMPORTIN-α7-3xHA-StrepII (protein, UniProt Q9M9X7 1-528)
chain: MKGGETMSVRRSGYKAVVDGVGGRRRREDDMVEIRKAKREESLLKKRREALPHSPSADSLDQKLISCIWSDERDLLIEATTQIRTLLCGEMFNVRVEEVIQAGLVPRFVEFLTWDDSPQLQFEAAWALTNIASGTSENTEVVIDHGAVAILVRLLNSPYDVVREQVVWALGNISGDSPRCRDIVLGHAALPSLLLQLNHGAKLSMLVNAAWTLSNLCRGKPQPPFDQVSAALPALAQLIRLDDKELLAYTCWALVYLSDGSNEKIQAVIEANVCARLIGLSIHRSPSVITPALRTIGNIVTGNDSQTQHIIDLQALPCLVNLLRGSYNKTIRKEACWTVSNITAGCQSQIQAVFDADICPALVNLLQNSEGDVKKEAAWAICNAIAGGSYKQIMFLVKQECIKPLCDLLTCSDTQLVMVCLEALKKILKVGEVFSSRHAEGIYQCPQTNVNPHAQLIEEAEGLEKIEGLQSHENNDIYETAVKILETYWMEEEEEEDQEQQDMIYFPVDNFANMPTSSGTLSEMHCGP
B2: IMPORTIN-α5-3xHA-StrepII (protein, UniProt Q9FJ09 1-519)
chain: MSLRPSTKTEIRRIRYKVSVDAEEGRRRREDFLVEIRKSKRNENLMKKRRVKVLPPDYKLISNDPFESLLEIANMITGVFSDDPSLQLEYTTRFRVVLSFDRSPPTDNVIKSGVVPRFVEFLKKDDNPKLQFEAAWALTNIASGASEHTKVVIDHGVVPLFVQLLASPDDDVREQAIWGLGNVAGDSIQCRDFVLNSGAFIPLLHQLNNHATLSILRNATWTLSNFFRGKPSPPFDLVKHVLPVLKRLVYSDDEQVLIDACWALSNLSDASNENIQSVIEAGVVPRLVELLQHASPVVLVPALRCIGNIVSGNSQQTHCVINCGVLPVLADLLTQNHMRGIRREACWTISNITAGLEEQIQSVIDANLIPSLVNLAQHAEFDIKKEAIWAISNASVGGSPNQIKYLVEQNCIKALCDILVCPDLRIILVSLGGLEMILIAGEVDKNLRDVNCYSQMIEDAEGLEKIENLQHHGNNEIYEKAVKILQTYGLVEEDGRLVEEEDEGGDGCSHPEFQFDFSR
B3: IMPORTIN-α9-3xHA-StrepII (protein, UniProt F4KF65 1-519)
chain: MADDGSASNRRDPIKSSVGNVAGQRRRKQAVTVAKERRELLVRAKRLCRVGTNGDVEDALVENEMMVDEEQPILEAQASKSVEELKSAVQYQGKGAMQKRVTALRELRRLLSKSEFPPVEAALRAGAIPLLVQCLSFGSPDEQLLESAWCLTNIAAGKPEETKALLPALPLLIAHLGEKSSAPVAEQCAWAIGNVAGEGEDLRNVLLSQGALPPLARMIFPDKGSTVRTAAWALSNLIKGPESKAAAQLVKIDGILDAILRHLKKTDEETATEIAWIIVYLSALSDIATSMLLKGGILQLLIDRLATSSSLQLLIPVLRSLGNFVAVDPKAVLTILIREQNTEESIIGVLAKCLRSEHRVLKKEAAWVLSNIAAGSIEHKRMIHSTEVMPLLLRILSTSPFDIRKEVAYVLGNLCVESAEGDRKPRIIQEHLVSIVSGGCLRGFIELVRSPDIEAARLGLQFIELVLRGMPNGEGPKLVEGEDGIDAMERFQFHENEELRVMANSLVDKYFGEDYGIDE
B4: IMPORTIN-α6-3xHA-StrepII (protein, UniProt Q9FWY7 1-538)
chain: MSYKPSAKTEVRRNRYKVSVDADEGRRRREDNMVEIRKNKREENLQKKRREGFNPSMASQPGQDFSSSLPTETRLENIQQMIAGVMSEDRDLQLEATASFRRLLSIERNPPINEVVQSGVVPHIVQFLSRDDFTQLQFEAAWALTNIASGTSENTRVIIDSGAVPLFVKLLSSASEEVREQAVWALGNVAGDSPKCRDHVLSCEAMMSLLAQFHEHSKLSMLRNATWTLSNFCRGKPQPAFEQTKAALPALERLLHSTDEEVLTDASWALSYLSDGTNEKIQTVIDAGVIPRLVQLLAHPSPSVLIPALRTIGNIVTGDDIQTQAVISSQALPGLLNLLKNTYKKSIKKEACWTISNITAGNTSQIQEVFQAGIIRPLINLLEIGEFEIKKEAVWAISNATSGGNHDQIKFLVSQGCIRPLCDLLPCPDPRVVTVTLEGLENILKVGEAEKNLGNTGNDNLYAQMIEDADGLDKIENLQSHDNNEIYEKAVKILESYWAADDEEEDIGGVDAPENVQSSGFQFGNQSGNAPTGGFNFG
B5: IMPORTIN-α8-3xHA-StrepII (protein, UniProt Q9FJ92 1-441)
chain: MAWKTEVNEVSDDIIDGLWSDDPPLQLESVTKIRRITSQRDISCVIRSGVVPRLVQLLKNQVFPKLQYEVAWALTNIAVDNPGVVVNNNAVPVLIQLIASPKDYVREQAIWTLSNVAGHSIHYRDFVLNSGVLMPLLRLLYKDTTLRIATWALRNLCRGKPHPAFDQVKPALPALEILLHSHDEDVLKNACMALCHLSEGSEDGIQSVIEAGFVPKLVQILQLPSPVVLVPALLTIGAMTAGNHQQTQCVINSGALPIISNMLTRNHENKIKKCACWVISNITAGTKEQIQSVIDANLIPILVNLAQDTDFYMKKEAVWAISNMALNGSHDQIKYMAEQSCIKQLCDILVYSDERTTILKCLDGLENMLKAGEAEKNSEDVNPYCLLIEDAEGLEKISKLQMNKNDDIYEKAYKILVTNWFEEDDENNNNNVRCDDVDFQV

No constants are given. Whether binding was seen depends on the method and setting. In cells and extracts the contact can be indirect. Binding calls can cover weak binding; strength is not graded here.

This assay deals with SNC1^E552K-mYFP (auto-active SNC1) (Arabidopsis thaliana). Nature of the assay: co-IP.
With B1, the binding result is reported as “binds weakly”.
The entry for B2 is “binds weakly”; for B3 it is “binds weakly”.
The entry for B4 is “binds weakly”; for B5 it is “binds weakly”.
